{"source": "patent US20070184098A1", "about": "“Esters of flavonoids with w-substituted c6-c22 fatty acids” (priority 2003, published 2007)", "test_system": "Human fibroblasts", "test": "UVA cytophotoprotection, anti-oxidative effect (MDA released, cell proteins, GSH) on UVA-irradiated human fibroblasts", "format": "cell-based", "conditions": "UVA 20 J/cm2", "procedure": "The cytoprotection against UVA irradiation has been evaluated by a test on human fibroblasts because UVA radiation penetrates through the epidermis until the dermis where it induces oxidative stress, mainly by activation of photosensitising biological components, which catalyse the formation of ROS like anion superoxide, hydrogen peroxide and singlet oxygen, and lipoperoxydation of the cell membrane. These oxidative stress effects are evaluated in vitro due to measuring of the level of released MDA (malondialdehyde) and of intracellular GSH (reduced glutathion) (Morliere P., Moisan A., Santus R., Huppe G., Mazière J. C., Dubertret L.: UV-A induced lipid peroxydation in cultured human fibroblasts Biochim. Biophys. Acta (1991) 1084, 3:261-269).\nThe lipoperoxides formed after UVA irradiation undergo a decay into malondialdehyde which can form cross-links between many biological molecules like proteins with inhibition of enzymes and nucleic bases with risk of mutagenesis. Glutathione (GSH) is a peptide produced by the cells to protect them from oxidative stress or certain pollutants like mercury or lead. […] GSH is evaluated according to the method of Hissin (Hissin P. J., Hilf R. A fluorometric method for determination of oxydised and reduced Glutathione in tissues. Analytical Biochemistry (1977) vol 74, pp 214-226). […]", "note": "At least one compound was matched to its structure with a doubt left."}
{"smiles": "C[C@@H]1O[C@@H](OC[C@H]2O[C@@H](Oc3c(-c4ccc(O)c(O)c4)oc4cc(O)cc(O)c4c3=O)[C@H](O)[C@@H](O)[C@@H]2O)[C@H](O)[C@H](O)[C@H]1O", "note": "[Rutin, reference compound]", "values": [{"measurement": "Protection of fibroblasts against UVA-induced MDA release and GSH decrease (in words)", "result": "very poorly protected"}]}
